Publication PMC1599745
No constants are given. Whether binding was seen depends on the method and setting. In cells and extracts the contact can be indirect. Some results given as binding are weak or reduced against the parent protein; the word gives no strength.

Protein sequences, listed by entry. Tags and fused reporters are not part of them.
UniProt P50750: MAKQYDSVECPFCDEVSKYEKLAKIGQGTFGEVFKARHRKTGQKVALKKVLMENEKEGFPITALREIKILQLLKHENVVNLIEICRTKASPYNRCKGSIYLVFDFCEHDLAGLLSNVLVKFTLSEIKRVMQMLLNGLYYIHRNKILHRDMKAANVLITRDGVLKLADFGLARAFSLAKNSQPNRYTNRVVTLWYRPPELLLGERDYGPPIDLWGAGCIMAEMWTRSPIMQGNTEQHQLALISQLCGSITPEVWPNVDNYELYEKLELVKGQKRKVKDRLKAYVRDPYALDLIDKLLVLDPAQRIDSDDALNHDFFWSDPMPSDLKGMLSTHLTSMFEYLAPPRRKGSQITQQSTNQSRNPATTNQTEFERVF
UniProt O94992: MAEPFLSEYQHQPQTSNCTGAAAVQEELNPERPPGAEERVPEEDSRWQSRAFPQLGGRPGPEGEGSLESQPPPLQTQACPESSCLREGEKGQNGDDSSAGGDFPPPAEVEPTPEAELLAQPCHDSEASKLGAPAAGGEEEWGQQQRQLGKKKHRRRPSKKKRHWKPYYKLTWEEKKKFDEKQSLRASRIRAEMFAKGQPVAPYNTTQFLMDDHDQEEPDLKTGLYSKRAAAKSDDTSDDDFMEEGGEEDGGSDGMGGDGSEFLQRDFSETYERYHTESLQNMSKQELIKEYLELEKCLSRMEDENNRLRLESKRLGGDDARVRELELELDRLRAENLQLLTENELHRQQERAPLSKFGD

Molecular target: Cyclin-dependent kinase-9 (CDK9) (human (endogenous in primary CD4+ T cells)) (UniProt P50750)
Experiment: co-IP; immunoprecipitation with anti-CDK9 antibodies/antiserum from extracts of resting CD4+ T cells cultured 48 h in DMSO or prostratin (250 ng/ml); lysis in EBCD buffer (50 mM Tris-HCl pH 8.0, 120 mM NaCl, 0.5% NP-40, 5 mM dithiothreitol) with protease and ribonuclease inhibitors; extract amounts adjusted to precipitate equivalent CDK9; immunoblot of the precipitates

binding: binds
Substance: HEXIM1 protein (from UniProt O94992 1-359)
